Assay results: publication PMC11101681
These are yes or no findings as the source states them, for the method shown. Binding seen in cells or lysates may run through a third protein. A yes stands for co-enrichment or nearness to the bait. Other partners may have been found. For some assays here: Where a sequence is shown, tags or fusion partners need not be part of it.

Chains of the proteins cited; added tags and fusions are not shown.
UniProt Q9BRT9: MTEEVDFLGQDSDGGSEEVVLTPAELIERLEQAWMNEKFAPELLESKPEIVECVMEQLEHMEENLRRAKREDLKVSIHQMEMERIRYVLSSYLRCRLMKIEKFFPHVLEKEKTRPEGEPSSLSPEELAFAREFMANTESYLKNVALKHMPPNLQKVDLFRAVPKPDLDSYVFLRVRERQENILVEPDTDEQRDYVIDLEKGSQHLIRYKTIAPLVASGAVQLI
UniProt Q9Y294: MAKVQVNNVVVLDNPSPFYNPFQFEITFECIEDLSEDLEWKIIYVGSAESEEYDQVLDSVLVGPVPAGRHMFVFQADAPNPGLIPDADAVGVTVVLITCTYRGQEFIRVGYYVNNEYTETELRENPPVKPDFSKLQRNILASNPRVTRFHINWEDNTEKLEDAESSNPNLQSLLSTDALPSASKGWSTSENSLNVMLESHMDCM
UniProt Q9NVP2: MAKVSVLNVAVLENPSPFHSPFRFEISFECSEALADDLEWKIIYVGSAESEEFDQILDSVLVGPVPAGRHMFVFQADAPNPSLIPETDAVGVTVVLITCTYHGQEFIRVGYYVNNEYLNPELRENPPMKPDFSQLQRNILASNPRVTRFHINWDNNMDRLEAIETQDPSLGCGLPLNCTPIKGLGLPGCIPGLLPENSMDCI
UniProt P35244: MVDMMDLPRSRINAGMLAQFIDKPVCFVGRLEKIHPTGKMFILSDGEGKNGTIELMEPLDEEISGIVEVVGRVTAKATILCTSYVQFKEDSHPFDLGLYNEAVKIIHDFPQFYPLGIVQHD

Experiments:
Experiment in all cases: proximity labelling; BioID2 fused N-terminally to the bait in stable HEK293 Flp-In T-REx cells; doxycycline 48 h, 50 uM biotin for the last 24 h, with or without 1 mM hydroxyurea for the last 24 h; lysis in 8 M urea, streptavidin sepharose, trypsin, LC-MS/MS; hits by SAINT score >=0.95 against the 293FT control and AvgSpec >=5
[1] = molecular target: T1, GINS1 (FLAG-BioID2 fusion bait) (human (cDNA library of U2OS cells)) (UniProt Q14691)
T1 sequence: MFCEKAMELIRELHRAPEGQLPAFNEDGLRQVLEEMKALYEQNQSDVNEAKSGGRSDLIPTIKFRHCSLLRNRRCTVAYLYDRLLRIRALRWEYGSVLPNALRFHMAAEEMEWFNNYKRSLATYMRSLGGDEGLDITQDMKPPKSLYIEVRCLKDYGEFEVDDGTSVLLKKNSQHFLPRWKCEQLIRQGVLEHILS

[2] = molecular target: T2, GINS2 (Flag-BIOID2-GINS2) (human (cDNA library of U2OS cells)) (UniProt Q9Y248)
T2 sequence: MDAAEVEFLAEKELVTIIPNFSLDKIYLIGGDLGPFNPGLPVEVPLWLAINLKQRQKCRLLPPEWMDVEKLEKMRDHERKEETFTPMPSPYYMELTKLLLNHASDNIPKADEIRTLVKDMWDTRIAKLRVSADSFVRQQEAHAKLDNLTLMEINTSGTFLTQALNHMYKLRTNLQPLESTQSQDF

[3] = molecular target: GINS4 (FLAG-BioID2 fusion bait) (human (cDNA library of U2OS cells)) (UniProt Q9BRT9)
[4] = molecular target: ASF1A (3MYC-BioID2 fusion bait) (human (cDNA library of U2OS cells)) (UniProt Q9Y294)
[5] = molecular target: ASF1B (3xMyc-BioID2-ASF1B) (human (cDNA library of U2OS cells)) (UniProt Q9NVP2)
[6] = molecular target: T3, POLE4 (Flag-BIOID2-POLE4) (human (cDNA library of U2OS cells)) (UniProt Q9NR33)
T3 sequence: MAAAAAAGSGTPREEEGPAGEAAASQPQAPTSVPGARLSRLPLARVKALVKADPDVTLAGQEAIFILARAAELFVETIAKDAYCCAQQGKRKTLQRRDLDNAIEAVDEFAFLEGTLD

[7] = molecular target: RPA3 (3MYC-BioID2 fusion bait) (UniProt P35244)

B1: GINS3 (protein, UniProt Q9BRX5 1-216)
chain: MSEAYFRVESGALGPEENFLSLDDILMSHEKLPVRTETAMPRLGAFFLERSAGAETDNAVPQGSKLELPLWLAKGLFDNKRRILSVELPKIYQEGWRTVFSADPNVVDLHKMGPHFYGFGSQLLHFDSPENADISQSLLQTFIGRFRRIMDSSQNAYNEDTSALVARLDEMERGLFQTGQKGLNDFQCWEKGQASQITASNLVQNYKKRKFTDMED
With B1 the binding [1] was “binds”, the binding [2] was “binds” and the binding [3] was “binds”.

B2: ZPR1 (protein, UniProt O75312 1-459)
chain: MAASGAVEPGPPGAAVAPSPAPAPPPAPDHLFRPISAEDEEQQPTEIESLCMNCYCNGMTRLLLTKIPFFREIIVSSFSCEHCGWNNTEIQSAGRIQDQGVRYTLSVRALEDMNREVVKTDSAATRIPELDFEIPAFSQKGALTTVEGLITRAISGLEQDQPARRANKDATAERIDEFIVKLKELKQVASPFTLIIDDPSGNSFVENPHAPQKDDALVITHYNRTRQQEEMLGLQEEAPAEKPEEEDLRNEVLQFSTNCPECNAPAQTNMKLVQIPHFKEVIIMATNCENCGHRTNEVKSGGAVEPLGTRITLHITDASDMTRDLLKSETCSVEIPELEFELGMAVLGGKFTTLEGLLKDIRELVTKNPFTLGDSSNPGQTERLQEFSQKMDQIIEGNMKAHFIMDDPAGNSYLQNVYAPEDDPEMKVERYKRTFDQNEELGLNDMKTEGYEAGLAPQR
B2 was tested, and the binding [4] was “binds”, the binding [5] was “binds” and the binding [6] was “binds”. The binding [7] was “binds”.

B3: GINS2 (Flag-BIOID2-GINS2) (protein, UniProt Q9Y248 1-185)
chain: MDAAEVEFLAEKELVTIIPNFSLDKIYLIGGDLGPFNPGLPVEVPLWLAINLKQRQKCRLLPPEWMDVEKLEKMRDHERKEETFTPMPSPYYMELTKLLLNHASDNIPKADEIRTLVKDMWDTRIAKLRVSADSFVRQQEAHAKLDNLTLMEINTSGTFLTQALNHMYKLRTNLQPLESTQSQDF
In the case of B3, the binding [1] is reported as “binds”.
